Data reported in patent publication US5635391A, “Isolated DNA encoding a nitrilase polypeptide, hosts containing, and expression thereof optionally assisted by a E. coli GroE chaperone polypeptide” (priority 1992, dated 1997).
At least one compound was matched to its structure with a doubt left.

The chains behind the UniProt entries cited, without tags or fusion partners.
UniProt Q59329, entry or part of it: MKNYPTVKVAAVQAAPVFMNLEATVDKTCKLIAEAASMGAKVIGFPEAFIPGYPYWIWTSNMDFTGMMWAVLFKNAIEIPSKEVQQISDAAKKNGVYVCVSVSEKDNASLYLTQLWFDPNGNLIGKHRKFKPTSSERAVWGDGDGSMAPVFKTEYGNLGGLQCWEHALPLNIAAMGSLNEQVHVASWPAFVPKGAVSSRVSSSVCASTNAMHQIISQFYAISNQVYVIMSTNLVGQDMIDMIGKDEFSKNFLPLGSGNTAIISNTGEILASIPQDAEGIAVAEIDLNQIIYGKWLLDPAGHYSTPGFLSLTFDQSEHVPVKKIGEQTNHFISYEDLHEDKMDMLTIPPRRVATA

Columns and labels:
purified nitrilase [1] = molecular target: T1, purified nitrilase (Comamonas testosteroni, UniProt Q59329); test: Activity of the purified nitrilase as a function of the pH; type: biochemical, Comamonas testosteroni sp.; conditions: substrate 10 mM, 25° C., U = μmol of adipate formed/h
T1 construct: about 280 kDa oligomer of about 38 kDa subunits
Procedure: The purified nitrilase was tested at different pH values on two substrates, adiponitrile and 5-cyanovalerate, under the conditions indicated in Table 2 below.
COMMON CONDITIONS: [substrate]=10 mM; buffer 10 mM; T 25° C.; [nitrilase]=12 μg/ml for cyanovalerate and 3 μg/ml for adiponitrile (fraction, step 6); U (adiponitrile)=μmol of cyanovalerate formed/h, U (cyanovalerate)=μmol of adipate formed/h.

purified nitrilase [2] = molecular target: T1, purified nitrilase; test: Relative activity of the purified nitrilase on various nitriles; type: biochemical, Comamonas testosteroni sp.; conditions: acetate buffer 10 mM, pH 4; substrate 10 mM; 25° C.
Procedure: The activities of the purified nitrilase were measured on adiponitrile, 5-cyanovaleramide, 5-cyanovaleric acid, benzonitrile, propionitrile and acrylonitrile.
COMMON CONDITIONS: acetate buffer=10 mM, pH 4; substrate=10 mM; volume=3 ml; T=25° C.; reaction time=1 or 3 h; proteins: from 5 to 30 μg/ml.

N#CCCCCC(=O)O [5-Cyanovalerate, 5-cyanovalerate]
SPECIFIC ACTIVITY (purified nitrilase [1]; Acetate pH 4.0): 450 U/mg of protein
SPECIFIC ACTIVITY (purified nitrilase [1]; Acetate pH 5.5): 180 U/mg of protein
SPECIFIC ACTIVITY (purified nitrilase [1]; Phosphate pH 7.0): 30 U/mg of protein
SPECIFIC ACTIVITY (purified nitrilase [1]; Phosphate pH 8.0): 6 U/mg of protein
RELATIVE ACTIVITY (purified nitrilase [2]): 22%
